# Experimental data published in patent publication US9340584.
# Protein sequences, listed by entry. Tags and fused reporters are not part of them. Residues count along the entry.
# UniProt P02768, residues 25-609: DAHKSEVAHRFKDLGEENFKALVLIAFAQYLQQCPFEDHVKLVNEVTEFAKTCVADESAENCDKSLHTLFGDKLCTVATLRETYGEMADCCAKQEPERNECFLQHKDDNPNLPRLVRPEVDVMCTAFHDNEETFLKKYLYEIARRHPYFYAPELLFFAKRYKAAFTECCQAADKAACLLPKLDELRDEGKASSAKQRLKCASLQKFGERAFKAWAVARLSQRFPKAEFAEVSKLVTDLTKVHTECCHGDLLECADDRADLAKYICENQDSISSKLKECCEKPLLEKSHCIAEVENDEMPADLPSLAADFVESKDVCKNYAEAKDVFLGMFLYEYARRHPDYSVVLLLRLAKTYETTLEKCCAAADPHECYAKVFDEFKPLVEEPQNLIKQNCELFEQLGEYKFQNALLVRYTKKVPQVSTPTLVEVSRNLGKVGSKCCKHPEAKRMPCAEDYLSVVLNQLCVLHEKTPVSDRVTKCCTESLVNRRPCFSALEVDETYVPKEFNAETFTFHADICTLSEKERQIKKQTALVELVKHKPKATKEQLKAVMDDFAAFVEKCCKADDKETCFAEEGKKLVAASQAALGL
# UniProt P02770, residues 25-608: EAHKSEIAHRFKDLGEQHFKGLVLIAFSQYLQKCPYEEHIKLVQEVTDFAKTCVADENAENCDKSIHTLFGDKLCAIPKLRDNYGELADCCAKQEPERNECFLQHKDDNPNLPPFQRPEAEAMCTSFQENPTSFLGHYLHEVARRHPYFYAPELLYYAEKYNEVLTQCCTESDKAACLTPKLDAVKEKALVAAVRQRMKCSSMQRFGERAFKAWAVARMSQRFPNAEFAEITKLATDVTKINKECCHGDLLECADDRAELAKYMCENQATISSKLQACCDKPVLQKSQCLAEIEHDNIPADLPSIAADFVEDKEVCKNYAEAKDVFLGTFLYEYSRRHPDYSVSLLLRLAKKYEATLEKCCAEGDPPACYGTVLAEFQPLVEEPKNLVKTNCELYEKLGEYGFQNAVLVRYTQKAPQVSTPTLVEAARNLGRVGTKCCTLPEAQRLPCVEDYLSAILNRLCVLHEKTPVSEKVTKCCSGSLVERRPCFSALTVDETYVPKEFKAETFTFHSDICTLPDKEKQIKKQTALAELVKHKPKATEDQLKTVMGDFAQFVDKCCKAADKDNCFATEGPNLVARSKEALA
# UniProt P07724, residues 25-608: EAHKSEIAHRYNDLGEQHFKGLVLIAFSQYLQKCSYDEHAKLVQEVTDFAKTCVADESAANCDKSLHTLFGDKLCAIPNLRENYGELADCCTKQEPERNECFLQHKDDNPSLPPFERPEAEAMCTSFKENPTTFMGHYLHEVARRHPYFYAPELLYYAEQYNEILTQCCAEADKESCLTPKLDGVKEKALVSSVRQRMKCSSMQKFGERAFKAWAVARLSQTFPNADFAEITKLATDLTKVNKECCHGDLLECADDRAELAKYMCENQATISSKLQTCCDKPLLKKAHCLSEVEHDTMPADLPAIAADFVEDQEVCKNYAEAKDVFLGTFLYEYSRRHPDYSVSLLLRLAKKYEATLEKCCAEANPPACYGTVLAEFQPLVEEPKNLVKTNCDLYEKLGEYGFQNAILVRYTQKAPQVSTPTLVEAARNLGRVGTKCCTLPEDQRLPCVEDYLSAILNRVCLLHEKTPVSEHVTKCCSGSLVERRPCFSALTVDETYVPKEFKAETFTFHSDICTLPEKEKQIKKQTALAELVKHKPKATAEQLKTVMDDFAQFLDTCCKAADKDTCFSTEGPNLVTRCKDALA
# UniProt P07766, residues 23-126: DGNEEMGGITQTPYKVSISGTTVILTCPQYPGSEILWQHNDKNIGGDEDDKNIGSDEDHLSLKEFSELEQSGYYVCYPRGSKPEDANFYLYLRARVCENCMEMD
# UniProt P15391, residues 20-291: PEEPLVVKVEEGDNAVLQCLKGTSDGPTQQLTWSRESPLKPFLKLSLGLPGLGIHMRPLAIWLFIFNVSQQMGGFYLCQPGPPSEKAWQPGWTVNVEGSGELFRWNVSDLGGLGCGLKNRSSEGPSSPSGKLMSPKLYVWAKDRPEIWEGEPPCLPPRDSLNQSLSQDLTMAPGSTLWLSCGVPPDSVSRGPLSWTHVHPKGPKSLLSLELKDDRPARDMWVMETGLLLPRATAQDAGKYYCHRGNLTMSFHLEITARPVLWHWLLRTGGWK
# UniProt P20273, residues 20-687: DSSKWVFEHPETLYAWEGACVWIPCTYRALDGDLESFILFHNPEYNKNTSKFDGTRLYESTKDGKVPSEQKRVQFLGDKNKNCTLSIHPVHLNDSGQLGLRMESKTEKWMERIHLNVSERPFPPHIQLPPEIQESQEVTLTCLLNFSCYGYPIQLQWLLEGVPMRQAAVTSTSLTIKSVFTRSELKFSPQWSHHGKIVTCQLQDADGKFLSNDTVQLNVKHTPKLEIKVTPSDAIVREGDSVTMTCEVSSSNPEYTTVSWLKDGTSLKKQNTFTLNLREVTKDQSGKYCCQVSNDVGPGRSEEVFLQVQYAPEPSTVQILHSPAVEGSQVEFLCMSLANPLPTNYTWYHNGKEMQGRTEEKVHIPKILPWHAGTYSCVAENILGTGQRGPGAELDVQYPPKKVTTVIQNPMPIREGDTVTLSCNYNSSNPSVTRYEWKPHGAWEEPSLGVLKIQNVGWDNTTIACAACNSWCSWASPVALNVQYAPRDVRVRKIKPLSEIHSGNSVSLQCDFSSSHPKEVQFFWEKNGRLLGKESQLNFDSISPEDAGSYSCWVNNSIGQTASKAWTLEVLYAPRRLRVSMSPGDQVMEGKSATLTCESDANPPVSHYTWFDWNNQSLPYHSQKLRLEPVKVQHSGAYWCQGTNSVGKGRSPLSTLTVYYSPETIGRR
# These are yes or no findings as the source states them, for the method shown. Some binding calls cover weakened binding; strength is not graded here. For some of these results: Tags and fused reporters may be left off the sequences shown.
# T1: LGR5-Fc (UniProt O75473)
# T1 sequence (biotinylated with BirA + ATP + Biotin, looked up): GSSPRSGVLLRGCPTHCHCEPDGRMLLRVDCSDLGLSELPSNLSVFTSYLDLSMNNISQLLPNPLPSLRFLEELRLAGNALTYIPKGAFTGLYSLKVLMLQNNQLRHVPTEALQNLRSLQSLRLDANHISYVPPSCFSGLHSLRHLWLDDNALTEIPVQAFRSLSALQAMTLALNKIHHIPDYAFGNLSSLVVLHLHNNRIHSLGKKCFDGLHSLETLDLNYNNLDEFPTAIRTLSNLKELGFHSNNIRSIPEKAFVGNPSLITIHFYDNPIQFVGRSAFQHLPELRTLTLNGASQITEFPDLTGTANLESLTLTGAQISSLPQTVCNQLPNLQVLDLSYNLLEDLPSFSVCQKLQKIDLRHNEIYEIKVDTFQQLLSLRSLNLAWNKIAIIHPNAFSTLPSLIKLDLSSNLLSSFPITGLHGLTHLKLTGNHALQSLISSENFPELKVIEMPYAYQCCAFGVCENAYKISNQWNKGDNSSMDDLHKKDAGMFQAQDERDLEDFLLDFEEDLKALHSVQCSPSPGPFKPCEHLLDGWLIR
# Legend:
# [1] = target: human serum albumin (human) (UniProt P02768); experiment: phage ELISA in triplets, HSA-biotin on streptavidin plate
# [2] = target: human serum albumin (human) (UniProt P02768); experiment: phage display selection from TRX-3 library
# [3] = target: rat serum albumin (rat) (UniProt P02770); experiment: phage ELISA, RSA-biotin on streptavidin plate (FIG. 18B)
# [4] = target: human serum albumin (human) (UniProt P02768); experiment: phage ELISA, HSA-biotin on streptavidin plate
# [5] = target: human serum albumin (human) (UniProt P02768); experiment: phage ELISA summary (FIG. 18C)
# [6] = target: rat serum albumin (rat) (UniProt P02770); experiment: phage ELISA summary (FIG. 18C)
# [7] = target: mouse serum albumin (mouse) (UniProt P07724); experiment: phage ELISA summary (FIG. 18C)
# [8] = target: human serum albumin (human) (UniProt P02768); experiment: phage ELISA, HSA-biotin on streptavidin plate (FIG. 18B)
# [9] = target: mouse serum albumin (mouse) (UniProt P07724); experiment: phage ELISA, MSA-biotin on streptavidin plate (FIG. 18B)
# [10] = target: human serum albumin (human) (UniProt P02768); experiment: SPR, Biacore T100, compared with the wild type TRX fusion
# [11] = target: human serum albumin (human) (UniProt P02768); experiment: SPR, Biacore T100, HSA on CM5 chip
# [12] = target: ECD-CD5-SBP-H8; experiment: phage display selection from TRX-3 library
# [13] = target: ECD-CD5-SBP-H8; experiment: phage ELISA, biotinylated CD5 on streptavidin plate
# [14] = target: ECD-CD5-SBP-H8; experiment: phage display selection on ECD-CD5-SBP-H8
# [15] = target: CD3e (recombinant target protein of Table 9) (UniProt P07766); experiment: phage display selection from TRX-3 library
# [16] = target: CD19-Fc domains (UniProt P15391); experiment: phage display selection from TRX-3 library
# [17] = target: CD22-Fc domain (UniProt P20273); experiment: phage display selection from TRX-3 library
# [18] = target: T1, LGR5-Fc; experiment: phage display selection from TRX-3 library
binder,measurement,setting,value
"HSA binder E2 (TRX-3 library), phage-displayed (designed binder) MVKQIESKTAFQEALDAAGDKLVVVDFSATKNEKRDVAEWSGPSKMIKPFFHSLSEKYSNVIFLEVDVDDAQDVASEAFGFFGFPVLPTFQFFKKGQKVGEFSGANKEKLEATINELV",binding,[1],binds
same,binding,[2],binds
same,binding,[3],binds
same,binding,[4],binds
same,binding,[5],binds
same,binding,[6],binds
same,binding,[7],binds
same,binding,[8],binds
same,binding,[9],binds
"HSA binder F3 (TRX-3 library), phage-displayed (designed binder) MVKQIESKTAFQEALDAAGDKLVVVDFSATGGTPGRRNRWSGPSKMIKPFFHSLSEKYSNVIFLEVDVDDAQDVASEAFCEFCFPFLPTFQFFKKGQKVGEFSGANKEKLEATINELV",binding,[1],binds
same,binding,[2],binds
same,binding,[3],binds
same,binding,[4],binds
same,binding,[5],binds
same,binding,[6],binds
same,binding,[7],binds
same,binding,[8],binds
same,binding,[9],binds
"HSA binder H6 (TRX-3 library), phage-displayed (designed binder) MVKQIESKTAFQEALDAAGDKLVVVDFSATDRKPWKTRGWSGPSKMIKPFFHSLSEKYSNVIFLEVDVDDAQDVASEAFGLFSFPLLPTFQFFKKGQKVGEFSGANKEKLEATINELV",binding,[1],binds
same,binding,[2],binds
same,binding,[3],binds
same,binding,[4],binds
same,binding,[5],binds
same,binding,[6],binds
same,binding,[7],binds
same,binding,[8],binds
same,binding,[9],binds
"HSA binder C6 (TRX-3 library), phage-displayed (designed binder) MVKQIESKTAFQEALDAAGDKLVVVDFSATCQTGTKQLPWSGPSKMIKPFFHSLSEKYSNVIFLEVDVDDAQDVASEAFGHFGFPTLPTFQFFKKGQKVGEFSGANKEKLEATINELV",binding,[1],binds
same,binding,[2],binds
same,binding,[3],binds
same,binding,[4],binds
same,binding,[5],binds
same,binding,[6],binds
same,binding,[7],binds
same,binding,[8],binds
same,binding,[9],binds
"RLuc-E2 (protein, not shown: large carriers) MVKQIESKTAFQEALDAAGDKLVVVDFSATKNEKRDVAEWSGPSKMIKPFFHSLSEKYSNVIFLEVDVDDAQDVASEAFGFFGFPVLPTFQFFKKGQKVGEFSGANKEKLEATINELV",binding,[10],binds
same,binding,[11],binds
"RLuc-F3 (protein, not shown: large carriers) MVKQIESKTAFQEALDAAGDKLVVVDFSATGGTPGRRNRWSGPSKMIKPFFHSLSEKYSNVIFLEVDVDDAQDVASEAFCEFCFPFLPTFQFFKKGQKVGEFSGANKEKLEATINELV",binding,[10],binds
same,binding,[11],binds
"RLuc-H6 (protein, not shown: large carriers) MVKQIESKTAFQEALDAAGDKLVVVDFSATDRKPWKTRGWSGPSKMIKPFFHSLSEKYSNVIFLEVDVDDAQDVASEAFGLFSFPLLPTFQFFKKGQKVGEFSGANKEKLEATINELV",binding,[10],binds
same,binding,[11],binds
CD5 binder A1 (TRX-3 library) (designed binder) MVKQIESKTAFQEALDAAGDKLVVVDFSATQWWGWIDGQWSGPSKMIKPFFHSLSEKYSNVIFLEVDVDDAQDVASEAYPLFGMAALPTFQFFKKGQKVGEFSGANKEKLEATINELV,binding,[12],binds
same,binding,[13],binds
same,binding,[14],binds
CD5 binder A5 (TRX-3 library) (designed binder) MVKQIESKTAFQEALDAAGDKLVVVDFSATQCNTGESHDWSGPSKMIKPFFHSLSEKYSNVIFLEVDVDDAQDVASEAWSPLIMCTMPTFQFFKKGQKVGEFSGANKEKLEATINELV,binding,[12],binds
same,binding,[13],binds
same,binding,[14],binds
CD5 binder E10 (TRX-3 library) (designed binder) MVKQIESKTAFQEALDAAGDKLVVVDFSATKERDSAWDDWSGPSKMIKPFFHSLSEKYSNVIFLEVDVDDAQDVASEAFYWSYPSLPPTFQFFKKGQKVGEFSGANKEKLEATINELV,binding,[12],binds
same,binding,[13],binds
same,binding,[14],binds
CD3ε binder C7 (TRX-3 library) (designed binder) MVKQIESKTAFQEALDAAGDKLVVVDFSATSARVWSCIPWSGPSKMIKPFFHSLSEKYSNVIFLEVDVDDAQDVASEASRPLTLIRSPTFQFFKKGQKVGEFSGANKEKLEATINELV,binding,[15],binds
CD3ε binder C8 (TRX-3 library) (designed binder) MVKQIESKTAFQEALDAAGDKLVVVDFSATPKARTKRNSWSGPSKMIKPFFHSLSEKYSNVIFLEVDVDDAQDVASEAMIFGRLVIIPTFQFFKKGQKVGEFSGANKEKLEATINELV,binding,[15],binds
CD3ε binder E8 (TRX-3 library) (designed binder) MVKQIESKTAFQEALDAAGDKLVVVDFSATNRRPQRNAKWSGPSKMIKPFFHSLSEKYSNVIFLEVDVDDAQDVASEALMLFFSRIIPTFQFFKKGQKVGEFSGANKEKLEATINELV,binding,[15],binds
CD19 binder A1 (TRX-3 library) (designed binder) MVKQIESKTAFQEALDAAGDKLVVVDFSATKRNDNTSDTWSGPSKMIKPFFHSLSEKYSNVIFLEVDVDDAQDVASEAFRRWNSRWGPTFQFFKKGQKVGEFSGANKEKLEATINELV,binding,[16],binds
CD19 binder A5 (TRX-3 library) (designed binder) MVKQIESKTAFQEALDAAGDKLVVVDFSATGDEQLVGRRWSGPSKMIKPFFHSLSEKYSNVIFLEVDVDDAQDVASEAFRRWNSRWGPTFQFFKKGQKVGEFSGANKEKLEATINELV,binding,[16],binds
CD22 binder A4 (TRX-3 library) (designed binder) MVKQIESKTAFQEALDAAGDKLVVVDFSATRDPNNCRGTWSGPSKMIKPFFHSLSEKYSNVIFLEVDVDDAQDVASEACVLYSVGYAPTFQFFKKGQKVGEFSGANKEKLEATINELV,binding,[17],binds
CD22 binder A6 (TRX-3 library) (designed binder) MVKQIESKTAFQEALDAAGDKLVVVDFSATKEPTVIGFWWSGPSKMIKPFFHSLSEKYSNVIFLEVDVDDAQDVASEALSPLFNFPLPTFQFFKKGQKVGEFSGANKEKLEATINELV,binding,[17],binds
CD22 binder E1 (TRX-3 library) (designed binder) MVKQIESKTAFQEALDAAGDKLVVVDFSATNVRESHKRGWSGPSKMIKPFFHSLSEKYSNVIFLEVDVDDAQDVASEAVSMFVLDSWPTFQFFKKGQKVGEFSGANKEKLEATINELV,binding,[17],binds
LGR5 binder A7 (TRX-3 library) (designed binder) MVKQIESKTAFQEALDAAGDKLVVVDFSATSWSGPSKMIKPFFHSLSEKYSNVIFLEVDVDDAQDVASEAAWLTPNRVPPTFQFFKKGQKVGEFSGANKEKLEATINELV,binding,[18],binds
LGR5 binder B2 (TRX-3 library) (designed binder) MVKQIESKTAFQEALDAAGDKLVVVDFSATSANSGWCCGWSGPSKMIKPFFHSLSEKYSNVIFLEVDVDDAQDVASEALDIESFLYFPTFQFFKKGQKVGEFSGANKEKLEATINELV,binding,[18],binds
LGR5 binder B5 (TRX-3 library) (designed binder) MVKQIESKTAFQEALDAAGDKLVVVDFSATEEKGYEGRRWSGPSKMIKPFFHSLSEKYSNVIFLEVDVDDAQDVASEAYVPFSLSGYPTFQFFKKGQKVGEFSGANKEKLEATINELV,binding,[18],binds
LGR5 binder D2 (TRX-3 library) (designed binder) MVKQIESKTAFQEALDAAGDKLVVVDFSATRYEETTRQHWSGPSKMIKPFFHSLSEKYSNVIFLEVDVDDAQDVASEARVASKRSAFPTFQFFKKGQKVGEFSGANKEKLEATINELV,binding,[18],binds
LGR5 binder E7 (TRX-3 library) (designed binder) MVKQIESKTAFQEALDAAGDKLVVVDFSATKWESPYEAVWSGPSKMIKPFFHSLSEKYSNVIFLEVDVDDAQDVASEALSHSVPYYLPTFQFFKKGQKVGEFSGANKEKLEATINELV,binding,[18],binds
